Biological target: T1, 5-hydroxytryptamine receptor 1A (Rattus norvegicus, UniProt P19327)
T1 sequence (P19327 whole entry): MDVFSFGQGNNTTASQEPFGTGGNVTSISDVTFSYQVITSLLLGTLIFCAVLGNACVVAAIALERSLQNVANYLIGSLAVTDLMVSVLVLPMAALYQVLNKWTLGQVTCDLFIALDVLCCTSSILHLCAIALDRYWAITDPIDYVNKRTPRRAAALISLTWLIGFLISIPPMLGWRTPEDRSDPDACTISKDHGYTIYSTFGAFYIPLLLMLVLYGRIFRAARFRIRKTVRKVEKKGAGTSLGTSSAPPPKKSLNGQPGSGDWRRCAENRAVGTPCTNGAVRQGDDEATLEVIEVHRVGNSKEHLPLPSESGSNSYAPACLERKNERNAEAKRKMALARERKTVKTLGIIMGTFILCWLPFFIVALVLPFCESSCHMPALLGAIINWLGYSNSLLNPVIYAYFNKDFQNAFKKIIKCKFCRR

Ki: 115 nM
SMILES: CC(C)NC[C@H](O)COc1cccc2ccccc12 [LEVOPROPRANOLOL]

Source: ChEMBL document CHEMBL1123653 (J Med Chem, 1987)
